The target in test [1] is Beta-amyloid peptide Aβ42. In words: ELISA; as a3 (anti-Aβ36-42 capture, anti-Aβ1-17 detection) but Ate1 added together with tRNA (Arg-tRNA in the methods); both purified. In general terms: ELISA stands for enzyme-linked immunosorbent assay.
Test [2] concerns the target Beta-amyloid peptide Aβ42. As to the kind of experiment: ELISA; as a1 (anti-Aβ1-17 capture, anti-Aβ36-42 detection) but Ate1 added together with tRNA (Arg-tRNA in the methods); both purified.

Amino acid sequences for entries named in this document (tags omitted). A change or cut given only in a name is not applied to a line headed by its entry. Chains listed by the source or under a name are the forms on record and can include a tag or linker.
Arginyl-tRNA-protein transferase Ate1, isoform Ate1-3 (Q9Z2A5-3, form named): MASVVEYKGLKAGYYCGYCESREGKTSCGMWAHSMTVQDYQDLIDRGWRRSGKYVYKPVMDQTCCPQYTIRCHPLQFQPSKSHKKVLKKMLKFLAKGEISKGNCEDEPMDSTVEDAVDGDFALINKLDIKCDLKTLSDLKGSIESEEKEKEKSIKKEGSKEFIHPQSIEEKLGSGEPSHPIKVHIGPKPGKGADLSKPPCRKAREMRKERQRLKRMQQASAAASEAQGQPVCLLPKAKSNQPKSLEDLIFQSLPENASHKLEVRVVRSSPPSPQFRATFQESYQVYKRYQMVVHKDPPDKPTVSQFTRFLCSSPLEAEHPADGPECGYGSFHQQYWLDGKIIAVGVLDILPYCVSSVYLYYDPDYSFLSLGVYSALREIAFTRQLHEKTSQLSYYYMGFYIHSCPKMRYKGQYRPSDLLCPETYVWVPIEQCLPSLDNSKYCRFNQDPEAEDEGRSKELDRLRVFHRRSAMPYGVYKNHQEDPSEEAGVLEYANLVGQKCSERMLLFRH

No constants are given. Whether binding was seen depends on the method and setting.

As for “Arginyl-tRNA-protein transferase Ate1, isoform Ate1-1 (from UniProt Q9Z2A5-1 1-516) (enzyme)”, the binding entry in test [1] and in test [2] was “no binding (condition: with tRNA)” throughout. “Arginyl-tRNA-protein transferase Ate1, isoform Ate1-3 (from UniProt Q9Z2A5-3 1-509) (enzyme)”: the binding entry in test [1] is listed as “no binding (condition: with tRNA)”.

The values are drawn from publication PMC6738421.
